# Test results as given in PubChem BioAssay AID1259415 (National Center for Advancing Translational Sciences (NCATS), 2018).
# In all, about 410,000 compounds went through this assay and about 18,000 (4.4%) were called active. This list was built around the results that the source calls inconclusive (neither active nor inactive); the mix of calls is not that of the screen. Cut-off read from the data, not from the text of the source: active = activity change below about -60%; inconclusive = no clear call, values can overlap the other calls; inactive = above about -39%.
# Experiment: qHTS Assay for inhibitors of the human cytomegalovirus (HCMV)
# Details: HFF cells, HCMV-luciferase reporter, 72 h; at 57.5 µM; hits give low values
# Method in brief: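 Cell-based, HFFs, 1000 cells/well, 16 h 37C; cpds in DMSO + HCMV-luc, MOI 1 PFU/cell; 72 h 37C; OneGlo luminescence after 5 min RT; norm. to buffer vs Salinomycin 10uM.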
# % is set by controls: 0 for no effect and ±100 for the full control effect.
row,Compound,"activity change, negative = inhibition"
1,O=C(c1cc(-c2ccccc2)nn1-c1ccccc1)N1CCN(S(=O)(=O)c2ccc(F)cc2)CC1,active: -77.1%
2,CCN(CC(=O)Nc1ccc(OC)cc1)C(=O)c1ccc2c(c1)NC(=O)C(C)S2 (stereo not drawn),inactive: -0.441%
3,Cc1c2cnn(CC(=O)NCCN3CCOCC3)c(=O)c2c(C)n1Cc1ccc(F)cc1,active: -72.3%
4,COc1ccc(-c2coc3c(C(=O)NCc4ccc(OC)c(OC)c4)cccc23)c(C)c1,active: -74.7%
5,Cc1nc(Nc2ccc(Cl)c(Cl)c2)sc1C(/C=C/c1ccc2c(c1)OCO2)=NNc1ccc([N+](=O)[O-])cc1[N+](=O)[O-],inconclusive: -47.9%
6,CCCn1c(Sc2nnnn2-c2ccccc2)n[nH]c1=O,active: -106%
7,CCCCNC(=O)c1cnc(Cc2c[nH]c3ccccc23)c(I)c1,inactive: -6.19%
8,O=C(CSc1nc2ccccc2o1)Nc1cc(C(F)(F)F)ccc1N1CCOCC1,inactive: -11.6%
9,CN(CC(=O)Nc1cccc(S(=O)(=O)N2CCOCC2)c1)CC(=O)Nc1ccc(Cl)c(C(F)(F)F)c1,active: -74.5%
10,CCOC(=O)c1sc(NC(=O)/C=C/c2ccc(C(C)C)cc2)c(C(=O)OCC)c1C,inconclusive: -55.2%
11,COc1ccc(OC)c(C2Nc3nc4ccccc4n3C(C)=C2C(=O)Nc2ccc(C)cc2C)c1 (stereo not drawn),inconclusive: -41%
12,CC(C)(C)OC(=O)N(Cc1ccccc1)Cc1ccc(OCc2cccc(NC(=O)C3CC3)c2)cc1,inconclusive: -47.7%
13,CCSc1nc2ccccc2n1C(=O)/C=C/c1ccc(OC)c(OC)c1,active: -100%
14,O=C(NCc1cccnc1)c1ccc(COc2ccc(Cl)cc2)cc1,active: -86%
15,O=C(NCCc1ccccc1)C(=O)NCC1OCCN1S(=O)(=O)c1ccc2c(c1)OCCO2 (stereo not drawn),inconclusive: -53.1%
16,COc1ccccc1NC(=O)CSc1nnc(-c2ccc(NC(C)=O)cc2)n1C,inactive: -26.4%
17,COc1ccc(CNC(=O)CCNC(=O)c2ccc(C(C)(C)C)cc2)cc1OC,inconclusive: -43.1%
18,Cc1cc(=O)[nH]c(SCC(=O)N(CCC#N)c2ccccc2)c1C#N,inconclusive: -40.3%
19,CCOC(=O)c1ccccc1-n1c(C)cc(C2N=C(N)Nc3nc4ccccc4n32)c1C (stereo not drawn),inconclusive: -54.3%
20,COc1ccc(OC)c(NC(=O)Nc2ccc(O)c3ccccc23)c1,inconclusive: -49.5%
21,COC(=O)CC1=NN(c2nc(C)cc(C)n2)C(=O)C1,active: -72.6%

row,Compound,"activity change, negative = inhibition"
1,Cc1nnsc1C(=O)NC1CCCc2c1cnn2-c1ccccc1F (stereo not drawn),active: -87.4%
2,Cc1ccc(C)c(SCC(=O)NC2CCS(=O)(=O)C2)c1 (stereo not drawn),inactive: 6.95%
3,S=C(NCc1ccccc1)Nc1cccc2ccccc12,inconclusive: -56.6%
4,O=C(C1CCC(=O)N(C2CC2)C1)N1CCC(Oc2cccc(C(F)(F)F)c2)CC1 (stereo not drawn),inconclusive: -40.2%
5,COc1cc(NC(=O)C2CCCN2S(=O)(=O)c2ccc3c(c2)CCC(=O)N3)cc(OC)c1 (stereo not drawn),inconclusive: -48%
6,COC(=O)[C@]12CCCCC=C1N(Cc1cccc3ccccc13)C(=O)[C@H](CC(=O)NCc1ccc(OC)c(OC)c1)C2,active: -86.4%
7,CC(C)N(C(=O)[C@H]1CC(CC(=O)NCCCn2ccnc2)C(=O)N2CCc3c([nH]c4ccccc34)[C@]12C)C(C)C (stereo partly drawn),inactive: 7.14%
8,CN=C(NC#N)SCC(=O)c1ccc(Cl)cc1Cl,inconclusive: -43.6%
9,N#C/C(=C/c1ccc(-c2ccc(S(N)(=O)=O)cc2)o1)c1nc2ccccc2s1,inconclusive: -50.3%
10,CCN(C(=O)c1cc2c(=O)n3cccc(C)c3nc2n1CCCOC)C1CCCCC1,inconclusive: -44.7%
11,CC(C)OC(=O)CSc1nnc(CNc2nc(-c3ccccc3)cs2)n1C,inactive: 4.48%
12,COc1ccc(N2CCN(CCNS(=O)(=O)c3cccc4nsnc34)CC2)cc1,inconclusive: -47.1%
13,Cc1ccc(S(=O)(=O)c2nnn3c2nc(N2CCN(c4ccccc4F)CC2)c2cc(Cl)ccc23)cc1C,inactive: 11.3%
14,CN(C)c1ccc(C(=O)c2ccc(N(C)C)c3ccccc23)cc1,active: -80%
15,N#Cc1c(/N=C/c2ccco2)sc2c1CCC2,inconclusive: -48.4%
16,Cc1cccc(-n2c(O)c(C=Nc3cc(O)ccc3C)c3ccccc3c2=O)n1,inconclusive: -44.5%
17,CCOC(=O)CC(C(=O)OCC)P(=O)(c1ccccc1)c1ccccc1 (stereo not drawn),inconclusive: -46.9%
18,Cc1cccc(Cl)c1NC(=O)N1CCCN(c2ncccc2[N+](=O)[O-])CC1,inconclusive: -44.9%
19,CCC(Cc1ccccc1)NC(=O)C1CCN(S(=O)(=O)c2c(C)noc2C)CC1 (stereo not drawn),inconclusive: -41.6%
20,O=S(=O)(NC1CC1)c1ccc(S(=O)(=O)N2CCc3ccccc32)cc1,active: -80.5%
21,CC(C)(CNC(=O)c1ccc(S(=O)(=O)Nc2cccc(C(F)(F)F)c2)cc1)N1CCOCC1,inactive: 5.06%

# Reprinted from the entries so far, 2 compounds:
row,Compound,"activity change, negative = inhibition"
7,CC(C)N(C(=O)[C@H]1CC(CC(=O)NCCCn2ccnc2)C(=O)N2CCc3c([nH]c4ccccc34)[C@]12C)C(C)C (stereo partly drawn),inactive: 7.14%
8,CN=C(NC#N)SCC(=O)c1ccc(Cl)cc1Cl,inconclusive: -43.6%

# Later entries

row,Compound,"activity change, negative = inhibition"
1,Cc1ccc(C(=O)O/N=C/c2ccc(N(C)C)cc2)cc1,inconclusive: -59%
2,Cc1noc(C(=O)NCc2ccc(F)cc2)c1Cl,inconclusive: -54.8%
3,CCOC(=O)N1CCc2c(sc(NCc3sccc3C)c2C(=O)Nc2ccc(OC)cc2OC)C1,active: -85.2%
4,Cn1ncc2c(N3CCN(c4cccc(Cl)c4)CC3)ncnc21,inactive: -11.3%
5,CCn1c(-c2ccc(C)cc2)nn(CC(=O)NCCc2ccccc2)c1=S,active: -103%
6,CC(C(=O)NCCCc1ccccc1)n1cccc1C(=O)c1ccccc1 (stereo not drawn),inconclusive: -41.3%
7,Cc1cc(C)cc(NC(=O)C(Cc2ccccc2)NS(=O)(=O)c2ccc3c(c2)c(=O)n(C)c(=O)n3C)c1 (stereo not drawn),inconclusive: -48.1%
8,O=C(c1ccc(Cl)cc1)C1CCN(CC(=O)N2CCCCC2)CC1,inconclusive: -45.8%
9,Cc1ccc(-n2c(=O)c3cccnc3n2CC(=O)Nc2ccc(Br)cc2)cc1C,inactive: 18.2%
10,COc1cc(/C=C/C(=O)OCC(=O)N2CCCCCC2)ccc1OCC#N,inconclusive: -40.2%
11,O=C(Nc1cc(C(F)(F)F)ccc1N1CCCCC1)C1=COCCO1,inactive: -17.2%
12,CC(C)(C)OC(=O)N1CCC(c2c(C(=O)NCCN3CCc4ccccc4C3)cnn2-c2ccc(F)cc2F)CC1,inconclusive: 0%
13,c1ccc(-c2ccccc2-n2cnnn2)cc1,inconclusive: -47.2%
14,O=S(=O)(c1cccs1)N1CCN(c2ccc(O)cc2)CC1,inconclusive: -43.3%
15,CCCNC(=O)CCc1nnc2ccc(N3CCN(c4cccc(OC)c4)CC3)nn12,inconclusive: -44.6%
16,O=C(Cn1nc([N+](=O)[O-])nc1Br)NC1CCCCC1,inconclusive: -43.3%
17,C/C(CC(=O)Nc1ccccn1)=N\NC(=O)c1ccccc1O,active: -91.2%
18,O=C(Nc1ccc([N+](=O)[O-])cc1)N1CCCCC1,inactive: -26.3%
19,COc1ccc(NC(=O)/C(Cl)=C(/Cl)S(=O)(=O)Cc2ccccc2)cn1,active: -105%
20,O=C(COc1ccccc1N1C(=O)c2ccccc2C1=O)c1ccc(Cl)cc1,inactive: -15.1%
21,N#Cc1c(Nc2ccccc2Cl)s[nH]c1=O,active: -86.5%

row,Compound,"activity change, negative = inhibition"
1,CC(=O)Nc1ccc(OCCOc2ccc([N+](=O)[O-])cc2)cc1,active: -72.1%
2,CCO/C=C/C(O)(CNC(=O)COc1ccccc1F)C(F)(F)F (stereo not drawn),inconclusive: -45.8%
3,COc1ccc(S(=O)(=O)Nc2ccccc2C(=O)Nc2nc(-c3ccc(F)cc3)cs2)cc1OC,active: -76.4%
4,CC(=O)Nc1ccc(OS(=O)(=O)c2c(C)cc(C)cc2C)cc1,inconclusive: -46.8%
5,O=C1CN(CC(=O)N2CCCCC2)c2ccccc2O1,inactive: -27.5%
6,O=C1N[C@@H](Cc2c[nH]c3ccccc23)COC(=O)[C@@H](Cc2ccc(F)cc2)CC/C=C/C[C@@H]1CC(=O)N(CCO)Cc1ccccc1,inconclusive: -41.4%
7,CC(C)c1c(C(=O)Nc2ccccc2)c(-c2ccccc2)c(-c2ccc(F)cc2)n1CC[C@@H](O)C[C@@H](O)CC(=O)O,active: -66.6%
8,CCC(c1nc2ccccc2c(=O)n1-c1nc2ccccc2s1)N1C(=O)c2ccccc2C1=O (stereo not drawn),inconclusive: -44.4%
9,Cc1cc(C)n(-c2nc3ccccc3nc2N2CCCCCC2)n1,inconclusive: -43.9%
10,CN(C)c1ccc(-c2cccc(C3CC=CC4C3C(=O)N(Cc3ccccc3)C4c3ccc(C(F)(F)F)cc3)c2)cc1 (stereo not drawn),inconclusive: -43.6%
11,Nc1ccc(-c2nc3ccc(C(=O)O)cc3s2)cc1,active: -84.6%
12,COCCNC(=O)C(c1ccc(C)cc1)N(C(=O)C(=O)NC1CCCC1)c1ccc2c(c1)OCCO2 (stereo not drawn),inactive: 45.2%
13,COc1ccc2nc(NC(=O)C34CC5CC(CC(NC(C)=O)(C5)C3)C4)sc2c1,inconclusive: -43%
14,CCn1ccnc1CN(C)Cc1cn(-c2ccccc2)nc1-c1ccc(OC)cc1F,inconclusive: -49.7%
15,COc1ccc(N2CCCC2)c(NC(=O)c2ccc(Br)o2)c1,inconclusive: -41.4%
16,Cc1ccc(NC(=O)C[n+]2cc(-c3ccccc3)n3c2CCC3)cc1,inconclusive: -51.8%
17,Cc1ccc(C)c(N2CCN(S(=O)(=O)c3ccc(-c4cc(C(F)(F)F)on4)s3)CC2)c1,inactive: -16.2%
18,O=C(Nc1ccccc1-c1ccccc1)C1CCCC1,inconclusive: -41.7%
19,CC(/C=C/c1ccccc1)=N/NC(=O)CNC(=O)c1ccccc1F,inconclusive: -40.2%
20,O=C(CCn1c(=O)c2cccn2c2cccnc21)Nc1ccccc1Br,inconclusive: -41.5%

# Shown with tabs: entries from further up.
row	Compound	activity change, negative = inhibition
11	CC(C)OC(=O)CSc1nnc(CNc2nc(-c3ccccc3)cs2)n1C	inactive: 4.48%
12	COc1ccc(N2CCN(CCNS(=O)(=O)c3cccc4nsnc34)CC2)cc1	inconclusive: -47.1%
